One may read the AC50 as the concentration at which the activity in the assay is half-maximal. A low value points to greater potency.

The experiment can be described thus: qHTS Assay for Lipid Storage Modulators in Drosophila S3 Cells.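 On cell number change: cells counted by Cell Tracker Red CMTPX staining in the red channel.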 To be noted: BODIPY lipid droplet fluorescence, 18-24 h; for cell number change: measured here: cell count max response, cells fed with added oleic acid. Put shortly: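 Drosophila S3 cells got compounds at several concentrations plus oleic acid (400 uM solution). Laser-scanning cytometry with 488 nm excitation read lipid droplets at 500-530 nm and cells at 575-640 nm. Percent activity was relative to 20 uM Triacsin C.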

Setting [1] is: measured here: cell number channel AC50, cells fed with added oleic acid.
Where [2] appears, read: measured here: lipid fluorescence (Fed channel) AC50, cells fed with added oleic acid.

The other results are listed elsewhere or left out. These are further read-outs of the screen, such as a control signal, another cell line or another target. No call is given for them. The list favours compounds with an active or inconclusive main result. The note in brackets gives the kind of curve behind each potency; many fits are weak.

Take `Cc1ccc(C(=O)OCC(=O)Nc2cc(S(=O)(=O)N3CCOCC3)ccc2C)cc1`: the cell number change is 20.4%. Under setting [1], the AC50 is 6.51 µM [rising, single point]. Besides, under setting [2], the AC50 is 1.64 µM [rising, partial curve, poor fit].

As for `O=C(O)c1cc(=O)c2ccccc2[nH]1`, the cell number change is -10%. Also, the half-maximal activity concentration (AC50) under setting [2] was 0.00461 µM [falling, full curve, poor fit].

`O=C(NCCC1=CCCCC1)c1ccc(Cl)c([N+](=O)[O-])c1`: the cell number change was -1.6%. For the same molecule, the AC50 under setting [1] was 5.17 µM [rising, single point].

Turning to `Cc1cccc(NC(=O)CC2C(=O)NCCN2C(=S)Nc2ccccc2)c1` (stereo not drawn), the cell number change came out at 93.7%. Further, the AC50 under setting [1] was 25.9 µM [rising, single point].

In the case of `C=CCn1c(=S)[nH]c2cc(C(=O)Nc3ccc(F)cc3)ccc2c1=O`, the cell number change is 42.7%. For the same molecule, the AC50 under setting [1] is 29.1 µM [rising, single point]. Moreover, the AC50 under setting [2] is 23.1 µM [falling, single point].

Turning to `Cc1cccc(C)c1NC(=O)NCc1ccco1`, the cell number change amounted to 7.52%. Besides, the AC50 under setting [2] was 0.291 µM [rising, partial curve, poor fit].

Turning to `CCCc1nnc(NC(=O)CCC(=O)N2CCCCC2CC)s1` (stereo not drawn), the cell number change is -1.76%.

`CCN1CCN(Cc2ccc(NC(=O)c3ccc(C)c(NC(=O)N4CCNC4=O)c3)cc2C(F)(F)F)CC1`: the AC50 under setting [2] is 14.6 µM [rising, partial curve].

Regarding `CC(=O)C1C(c2ccc(Cl)cc2)c2c(noc2C)CC1(C)O` (stereo not drawn), the cell number change stood at 14.4%. Also, under setting [2], the AC50 was 29.1 µM [rising, single point].

Consider `O=C(NC1CCCCC1)C(=S)NCc1ccccc1`, for which the half-maximal activity concentration (AC50) under setting [2] is 18.4 µM [rising, partial curve].

Take `Cc1ccc(-c2noc(C3CCCN(C(=O)C4CCCCC4)C3)n2)o1` (stereo not drawn): the cell number change came out at 101%. Also, the AC50 under setting [1] was 29.1 µM [rising, single point]. Besides, the AC50 under setting [2] is 29.1 µM [rising, single point].

With `COc1ccccc1NC(=O)NC1CCCCCCC1`, the cell number change is 2.02%. Further, the AC50 under setting [2] was 16.4 µM [rising, single point].

`CCC(CO)n1c(SCc2cc(=O)oc3cc(C)ccc23)nc2ccccc2c1=O` (stereo not drawn): the cell number change was found to be 4.68%. Moreover, the AC50 under setting [2] is 29.1 µM [rising, single point].

For `O=C(NCCCc1ccccc1)c1ccc([N+](=O)[O-])cc1Cl`, the cell number change was -2.81%.

For the molecule `Cc1cccc(NC(=S)N(Cc2cccs2)Cc2cc3cc(C)ccc3[nH]c2=O)c1`, the cell number change is 58.4%. Further, under setting [1], the AC50 is 32.6 µM [rising, single point]. Moreover, the AC50 under setting [2] was 16.4 µM [falling, single point].

As for `Cc1cc(C)n(CCCNCC(O)c2ccccc2)n1` (stereo not drawn), the cell number change is 152%.

For `CCc1oc2ccccc2c1C(=O)CCN1CCCCC1`, the cell number change is -28.7%. Further, the AC50 under setting [2] is 4.11 µM [rising, single point].

The values above are taken from PubChem BioAssay AID2685 (National Center for Advancing Translational Sciences (NCATS), 2010).
